Results from PubChem BioAssay AID274 (DTP/NCI, 2004).
The list shows only some results of the screen, not a fair sample: it gathers tests that were run many times, whatever their T/C, doses with no T/C, and many T/C values between a quarter and a half above the control. Other doses and runs of a compound stand elsewhere. T/C: endpoint of the treated group in % of that of the vehicle group. Some entries give survivors of the animals treated and no T/C: the source holds a T/C of zero for them, seemingly a mark for toxic or unscored doses. Some doses without a T/C left all or most animals alive at the check, yet need not have been tolerated: survival well below the control is almost never listed, so the zero probably covers shortened survival too. Survivors were counted at the toxicity check, usually on the fifth day, unless a day is given; later deaths do not show. Schedule codes are those of the source, read here as Q, the interval in days (D) or hours (H), X, the number of doses. Signs of the kind (2×) give the number of equal values in this list. Some entries hold several experiments; their values stand side by side, smallest first. For survival time, this PubChem deposit counts one and a half times the control or more as active, and values a quarter to a half above the control carry no call in these data; other NCI protocols may use other cut-offs. Some T/C values are followed by the survivors on the day toxicity was checked, most often the fifth; without a count, all were alive then.

Tested on: BDF1 mice, Lewis lung carcinoma iv, survival T/C
Experiment: NCI In Vivo Anticancer Drug Screen. Data for tumor model Lewis Lung Carcinoma (intravenous) in B6D2F1 (BDF1) mice
Settings: T/C endpoint: median survival time, vehicle: saline, higher T/C = longer survival
Method: The antitumor activity of compounds was measured in mice bearing transplantable tumors. Survival or tumor size were measured and the results are expressed as the measurement made in the treated group (T) divided by the measurement made in the vehicle treated control group (C). The tumor model used in this assay is Lewis Lung Carcinoma (intravenous) in B6D2F1 (BDF1) mice

[1] = dose: 120.0 mg/kg/injection, schedule: Q04DX003 (ip)

`O=c1[nH]cc(F)c(=O)[nH]1` was tested, and the T/C (dose: 5.0 mg/kg/injection, schedule: Q01DX009 (ip)) was 130 % of control, the T/C (dose: 6.9 mg/kg/injection, schedule: Q01DX022 (ip)) was 139 % of control and the T/C (dose: 9.8 mg/kg/injection, schedule: Q01DX009 (ip)) was 140 % of control. For the same molecule, the T/C (dose: 9.8 mg/kg/injection, schedule: Q01DX022 (ip)) was 140 % of control, the T/C (dose: 14.0 mg/kg/injection, schedule: Q01DX009 (ip)) was 126 % of control [7 of 8 alive] and the T/C (dose: 20.0 mg/kg/injection, schedule: Q01DX009 (ip), evaluated on day 60) was 113, 123, 127 % of control. The T/C (dose: 20.0 mg/kg/injection, schedule: Q01DX009 (ip), evaluated on day 90) was 135 [7 of 8 alive] and 186 % of control, the survivor count (dose: 20.0 mg/kg/injection, schedule: Q01DX022 (ip)) was 8 of 8 and the T/C (dose: 20.0 mg/kg/injection, schedule: Q04DX003 (ip), evaluated on day 60) was 100 [7 of 8 alive] and 102 % of control (2×). The T/C (dose: 20.0 mg/kg/injection, schedule: Q04DX003 (ip), evaluated on day 90) was 107 [7 of 8 alive] and 117 % of control, the T/C (dose: 20.0 mg/kg/injection, schedule: Q04DX006 (ip)) was 135 % of control and the survivor count (dose: 28.6 mg/kg/injection, schedule: Q01DX009 (ip)) was 8 of 8. The survivor count (dose: 28.6 mg/kg/injection, schedule: Q01DX022 (ip)) was 8 of 8, the T/C (dose: 30.0 mg/kg/injection, schedule: Q04DX003 (ip), evaluated on day 60) was 100, 105, 105 [7 of 8 alive], 115, 115 % of control [7 of 8 alive] (2×) and the T/C (dose: 30.0 mg/kg/injection, schedule: Q04DX003 (ip), evaluated on day 90) was 109 [7 of 8 alive] and 139 % of control. The T/C (dose: 30.0 mg/kg/injection, schedule: Q04DX006 (ip)) was 140 % of control, the survivor count (dose: 40.0 mg/kg/injection, schedule: Q01DX009 (ip)) was 10 of 10 and the survivor count (dose: 40.9 mg/kg/injection, schedule: Q01DX009 (ip)) was 8 of 8. For the same molecule, the T/C (dose: 44.0 mg/kg/injection, schedule: Q04DX003 (ip), evaluated on day 60) was 114 and 114 % of control [7 of 8 alive], the T/C (dose: 44.0 mg/kg/injection, schedule: Q04DX003 (ip), evaluated on day 90) was 114 [7 of 8 alive] and 206 % of control and the survivor count (dose: 44.0 mg/kg/injection, schedule: Q04DX003 (ip)) was 8 of 8. For the same molecule, the T/C (dose: 44.0 mg/kg/injection, schedule: Q04DX006 (ip)) was 145 % of control, the survivor count (dose: 60.0 mg/kg/injection, schedule: Q04DX003 (ip)) was 5 of 8 and 6 of 8 and the T/C (dose: 67.0 mg/kg/injection, schedule: Q04DX003 (ip), evaluated on day 60) was 100 and 122 % of control (2×). For the same molecule, the T/C (dose: 67.0 mg/kg/injection, schedule: Q04DX003 (ip), evaluated on day 90) was 136 % of control [6 of 8 alive], the survivor count (dose: 67.0 mg/kg/injection, schedule: Q04DX003 (ip)) was 8 of 8 and the survivor count (dose: 67.0 mg/kg/injection, schedule: Q04DX006 (ip)) was 8 of 8. The survivor count (dose: 80.0 mg/kg/injection, schedule: Q01DX009 (ip)) was 10 of 10, the T/C (dose: 100.0 mg/kg/injection, schedule: Q04DX003 (ip), evaluated on day 60) was 122 % of control (2×) and the T/C (dose: 100.0 mg/kg/injection, schedule: Q04DX003 (ip), evaluated on day 90) was 125 % of control [7 of 8 alive]. For the same molecule, the survivor count (dose: 100.0 mg/kg/injection, schedule: Q04DX003 (ip)) was 8 of 8 (2×), the survivor count (dose: 100.0 mg/kg/injection, schedule: Q04DX006 (ip)) was 8 of 8 and the T/C [1] was 131 and 131 % of control [7 of 8 alive]. For the same molecule, the survivor count [1] was 7 of 8.
